Measured values taken from the supplement of paper PMC10849652.
This is one part of the list.

The chains behind the UniProt entries cited, without tags or fusion partners. Where a name states a change or a piece, a line headed by the entry shows the natural chain unless it says otherwise.
UniProt Q6PJT7: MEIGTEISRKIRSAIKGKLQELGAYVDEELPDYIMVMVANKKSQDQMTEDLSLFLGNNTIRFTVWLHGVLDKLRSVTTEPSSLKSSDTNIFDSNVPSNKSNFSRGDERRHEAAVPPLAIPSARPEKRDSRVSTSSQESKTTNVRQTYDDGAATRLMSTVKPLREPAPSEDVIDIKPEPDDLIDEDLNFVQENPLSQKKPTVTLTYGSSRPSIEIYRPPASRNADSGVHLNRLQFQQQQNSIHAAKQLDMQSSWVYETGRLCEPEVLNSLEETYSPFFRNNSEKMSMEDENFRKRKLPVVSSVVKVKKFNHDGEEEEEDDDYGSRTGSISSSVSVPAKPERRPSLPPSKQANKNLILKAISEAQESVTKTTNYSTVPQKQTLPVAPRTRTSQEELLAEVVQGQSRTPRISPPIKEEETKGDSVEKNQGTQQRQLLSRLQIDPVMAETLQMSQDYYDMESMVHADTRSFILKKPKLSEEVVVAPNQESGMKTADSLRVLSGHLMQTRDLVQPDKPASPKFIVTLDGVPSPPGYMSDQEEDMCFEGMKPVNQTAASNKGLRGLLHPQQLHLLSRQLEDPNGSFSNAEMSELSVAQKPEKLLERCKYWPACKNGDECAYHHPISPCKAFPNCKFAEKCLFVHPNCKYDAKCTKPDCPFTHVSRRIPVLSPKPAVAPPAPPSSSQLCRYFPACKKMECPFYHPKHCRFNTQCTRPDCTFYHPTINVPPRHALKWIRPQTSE
UniProt Q9NQH7: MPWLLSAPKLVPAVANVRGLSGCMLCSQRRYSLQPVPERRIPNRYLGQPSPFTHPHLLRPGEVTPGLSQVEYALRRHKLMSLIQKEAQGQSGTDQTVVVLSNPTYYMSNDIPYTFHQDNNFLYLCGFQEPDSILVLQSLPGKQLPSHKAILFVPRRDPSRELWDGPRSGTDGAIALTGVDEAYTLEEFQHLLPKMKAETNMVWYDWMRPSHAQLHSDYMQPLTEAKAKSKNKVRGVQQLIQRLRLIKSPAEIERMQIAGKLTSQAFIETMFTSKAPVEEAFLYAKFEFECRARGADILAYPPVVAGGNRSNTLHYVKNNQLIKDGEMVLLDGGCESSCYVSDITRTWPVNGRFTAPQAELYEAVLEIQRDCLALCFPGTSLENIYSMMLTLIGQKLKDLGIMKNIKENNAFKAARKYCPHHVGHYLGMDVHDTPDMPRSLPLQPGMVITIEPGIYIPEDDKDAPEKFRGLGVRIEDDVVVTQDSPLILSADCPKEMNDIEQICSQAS
UniProt Q8N5P1: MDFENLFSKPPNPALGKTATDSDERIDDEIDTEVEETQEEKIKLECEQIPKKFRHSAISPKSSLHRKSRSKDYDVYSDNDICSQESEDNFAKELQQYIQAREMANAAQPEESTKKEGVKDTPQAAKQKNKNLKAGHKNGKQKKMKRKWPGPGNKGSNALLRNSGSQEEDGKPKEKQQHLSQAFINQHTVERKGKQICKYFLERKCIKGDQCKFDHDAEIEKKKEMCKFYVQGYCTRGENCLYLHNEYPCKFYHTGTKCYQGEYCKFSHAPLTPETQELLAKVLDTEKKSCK
UniProt Q96GY0: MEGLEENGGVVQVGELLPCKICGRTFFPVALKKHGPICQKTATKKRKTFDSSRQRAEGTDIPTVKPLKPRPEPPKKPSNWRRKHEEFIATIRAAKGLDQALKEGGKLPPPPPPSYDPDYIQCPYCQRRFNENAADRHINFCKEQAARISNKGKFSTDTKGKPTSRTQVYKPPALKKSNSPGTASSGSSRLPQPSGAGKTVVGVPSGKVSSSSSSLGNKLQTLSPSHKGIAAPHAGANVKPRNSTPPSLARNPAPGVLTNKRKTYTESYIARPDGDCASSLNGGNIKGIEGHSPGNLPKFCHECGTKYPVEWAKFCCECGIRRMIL
UniProt Q9BSR8: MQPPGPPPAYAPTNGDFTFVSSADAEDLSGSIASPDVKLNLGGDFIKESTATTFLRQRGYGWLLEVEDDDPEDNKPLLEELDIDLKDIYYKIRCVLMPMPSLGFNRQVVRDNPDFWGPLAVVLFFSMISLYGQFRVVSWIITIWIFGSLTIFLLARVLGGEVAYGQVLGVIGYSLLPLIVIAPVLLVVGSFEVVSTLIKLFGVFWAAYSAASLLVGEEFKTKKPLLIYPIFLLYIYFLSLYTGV
UniProt P62258: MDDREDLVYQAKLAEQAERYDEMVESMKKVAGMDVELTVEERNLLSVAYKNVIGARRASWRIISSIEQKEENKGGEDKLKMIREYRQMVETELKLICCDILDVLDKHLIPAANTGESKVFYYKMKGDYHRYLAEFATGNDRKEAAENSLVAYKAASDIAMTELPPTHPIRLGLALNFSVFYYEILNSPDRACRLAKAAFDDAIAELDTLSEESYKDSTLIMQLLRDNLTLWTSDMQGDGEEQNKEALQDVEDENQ
UniProt P12956: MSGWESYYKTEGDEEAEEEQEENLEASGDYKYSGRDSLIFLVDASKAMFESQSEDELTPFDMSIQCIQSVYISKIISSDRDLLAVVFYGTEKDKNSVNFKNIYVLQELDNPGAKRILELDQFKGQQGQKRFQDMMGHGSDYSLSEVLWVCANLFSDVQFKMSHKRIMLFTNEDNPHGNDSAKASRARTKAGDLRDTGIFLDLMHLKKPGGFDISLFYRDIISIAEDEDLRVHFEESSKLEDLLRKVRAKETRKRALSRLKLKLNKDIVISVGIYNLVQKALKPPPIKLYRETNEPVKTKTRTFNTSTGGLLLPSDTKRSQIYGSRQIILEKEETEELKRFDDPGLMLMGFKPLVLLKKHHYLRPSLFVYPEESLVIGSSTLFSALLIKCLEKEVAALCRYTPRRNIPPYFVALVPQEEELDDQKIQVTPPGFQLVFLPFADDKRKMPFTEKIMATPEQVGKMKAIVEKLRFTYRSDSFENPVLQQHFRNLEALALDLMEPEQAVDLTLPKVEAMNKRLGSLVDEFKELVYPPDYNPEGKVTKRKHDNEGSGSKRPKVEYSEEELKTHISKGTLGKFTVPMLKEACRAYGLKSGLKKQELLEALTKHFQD
UniProt Q6NZY4: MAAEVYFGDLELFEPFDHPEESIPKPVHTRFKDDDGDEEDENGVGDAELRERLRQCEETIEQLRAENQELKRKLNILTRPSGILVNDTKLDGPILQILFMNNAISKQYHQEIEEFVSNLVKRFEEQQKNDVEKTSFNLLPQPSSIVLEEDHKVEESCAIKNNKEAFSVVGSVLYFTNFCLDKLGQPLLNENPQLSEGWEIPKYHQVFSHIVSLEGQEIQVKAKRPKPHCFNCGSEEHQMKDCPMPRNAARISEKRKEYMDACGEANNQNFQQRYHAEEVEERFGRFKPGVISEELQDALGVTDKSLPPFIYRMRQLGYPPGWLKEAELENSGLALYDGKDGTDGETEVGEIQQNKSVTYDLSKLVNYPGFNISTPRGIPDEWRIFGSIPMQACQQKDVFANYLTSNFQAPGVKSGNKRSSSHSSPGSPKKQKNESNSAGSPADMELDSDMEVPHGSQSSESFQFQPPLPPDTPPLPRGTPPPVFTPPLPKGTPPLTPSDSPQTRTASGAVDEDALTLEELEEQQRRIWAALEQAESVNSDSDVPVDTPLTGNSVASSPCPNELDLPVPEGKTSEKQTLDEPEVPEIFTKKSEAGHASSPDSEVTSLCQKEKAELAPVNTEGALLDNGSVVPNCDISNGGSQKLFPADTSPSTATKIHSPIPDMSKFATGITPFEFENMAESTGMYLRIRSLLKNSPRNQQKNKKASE
UniProt Q96EC8: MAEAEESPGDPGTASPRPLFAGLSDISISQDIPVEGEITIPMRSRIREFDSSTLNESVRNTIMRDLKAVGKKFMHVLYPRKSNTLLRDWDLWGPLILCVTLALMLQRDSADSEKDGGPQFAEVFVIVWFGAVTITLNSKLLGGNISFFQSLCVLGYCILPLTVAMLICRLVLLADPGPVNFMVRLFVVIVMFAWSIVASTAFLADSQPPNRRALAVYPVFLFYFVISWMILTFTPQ
UniProt Q7Z3T8: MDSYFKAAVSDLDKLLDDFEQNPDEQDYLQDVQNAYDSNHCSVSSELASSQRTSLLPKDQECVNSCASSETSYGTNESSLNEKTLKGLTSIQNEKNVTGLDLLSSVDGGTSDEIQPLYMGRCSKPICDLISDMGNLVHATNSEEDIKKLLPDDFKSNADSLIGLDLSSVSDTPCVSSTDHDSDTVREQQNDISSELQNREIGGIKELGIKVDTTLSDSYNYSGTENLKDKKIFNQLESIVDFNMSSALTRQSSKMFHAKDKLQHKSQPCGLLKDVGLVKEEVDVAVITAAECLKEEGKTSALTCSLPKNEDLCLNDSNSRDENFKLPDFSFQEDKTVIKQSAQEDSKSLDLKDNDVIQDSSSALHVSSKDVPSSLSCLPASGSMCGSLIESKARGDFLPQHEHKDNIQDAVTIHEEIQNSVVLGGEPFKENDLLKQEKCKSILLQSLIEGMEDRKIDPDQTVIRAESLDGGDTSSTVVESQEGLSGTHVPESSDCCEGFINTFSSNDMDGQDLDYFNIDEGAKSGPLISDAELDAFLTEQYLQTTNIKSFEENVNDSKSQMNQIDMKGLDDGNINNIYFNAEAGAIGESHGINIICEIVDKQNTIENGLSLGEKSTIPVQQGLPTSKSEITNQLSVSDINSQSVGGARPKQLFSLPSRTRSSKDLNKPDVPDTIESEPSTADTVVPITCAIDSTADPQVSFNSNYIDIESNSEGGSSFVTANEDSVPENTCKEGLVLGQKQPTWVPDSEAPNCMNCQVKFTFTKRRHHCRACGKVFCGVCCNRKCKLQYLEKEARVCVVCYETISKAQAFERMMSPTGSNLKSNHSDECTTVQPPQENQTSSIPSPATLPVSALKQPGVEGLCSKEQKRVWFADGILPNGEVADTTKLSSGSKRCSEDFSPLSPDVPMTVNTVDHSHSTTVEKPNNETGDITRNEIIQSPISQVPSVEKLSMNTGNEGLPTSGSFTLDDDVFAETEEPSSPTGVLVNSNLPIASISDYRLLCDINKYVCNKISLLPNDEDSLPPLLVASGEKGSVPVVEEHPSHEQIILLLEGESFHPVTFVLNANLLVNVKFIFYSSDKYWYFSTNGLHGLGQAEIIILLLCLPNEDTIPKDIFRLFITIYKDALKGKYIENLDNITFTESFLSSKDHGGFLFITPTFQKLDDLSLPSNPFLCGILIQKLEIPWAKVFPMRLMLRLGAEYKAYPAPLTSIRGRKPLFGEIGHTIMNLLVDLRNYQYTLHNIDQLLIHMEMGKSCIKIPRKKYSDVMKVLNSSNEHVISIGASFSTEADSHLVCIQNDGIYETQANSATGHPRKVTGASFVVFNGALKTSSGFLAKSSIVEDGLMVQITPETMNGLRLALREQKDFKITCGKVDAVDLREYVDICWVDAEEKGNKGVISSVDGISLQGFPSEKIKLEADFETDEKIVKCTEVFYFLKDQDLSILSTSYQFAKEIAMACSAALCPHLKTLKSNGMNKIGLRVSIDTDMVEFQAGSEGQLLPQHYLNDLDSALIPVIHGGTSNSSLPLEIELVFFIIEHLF
UniProt O95070: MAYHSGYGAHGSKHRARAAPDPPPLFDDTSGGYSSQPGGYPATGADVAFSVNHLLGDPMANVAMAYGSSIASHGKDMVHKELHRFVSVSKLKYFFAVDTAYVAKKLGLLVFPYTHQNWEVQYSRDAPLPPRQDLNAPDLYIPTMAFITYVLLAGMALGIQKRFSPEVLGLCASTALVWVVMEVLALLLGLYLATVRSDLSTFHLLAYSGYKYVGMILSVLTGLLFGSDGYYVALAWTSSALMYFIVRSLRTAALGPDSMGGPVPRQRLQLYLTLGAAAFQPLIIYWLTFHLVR
UniProt O75152: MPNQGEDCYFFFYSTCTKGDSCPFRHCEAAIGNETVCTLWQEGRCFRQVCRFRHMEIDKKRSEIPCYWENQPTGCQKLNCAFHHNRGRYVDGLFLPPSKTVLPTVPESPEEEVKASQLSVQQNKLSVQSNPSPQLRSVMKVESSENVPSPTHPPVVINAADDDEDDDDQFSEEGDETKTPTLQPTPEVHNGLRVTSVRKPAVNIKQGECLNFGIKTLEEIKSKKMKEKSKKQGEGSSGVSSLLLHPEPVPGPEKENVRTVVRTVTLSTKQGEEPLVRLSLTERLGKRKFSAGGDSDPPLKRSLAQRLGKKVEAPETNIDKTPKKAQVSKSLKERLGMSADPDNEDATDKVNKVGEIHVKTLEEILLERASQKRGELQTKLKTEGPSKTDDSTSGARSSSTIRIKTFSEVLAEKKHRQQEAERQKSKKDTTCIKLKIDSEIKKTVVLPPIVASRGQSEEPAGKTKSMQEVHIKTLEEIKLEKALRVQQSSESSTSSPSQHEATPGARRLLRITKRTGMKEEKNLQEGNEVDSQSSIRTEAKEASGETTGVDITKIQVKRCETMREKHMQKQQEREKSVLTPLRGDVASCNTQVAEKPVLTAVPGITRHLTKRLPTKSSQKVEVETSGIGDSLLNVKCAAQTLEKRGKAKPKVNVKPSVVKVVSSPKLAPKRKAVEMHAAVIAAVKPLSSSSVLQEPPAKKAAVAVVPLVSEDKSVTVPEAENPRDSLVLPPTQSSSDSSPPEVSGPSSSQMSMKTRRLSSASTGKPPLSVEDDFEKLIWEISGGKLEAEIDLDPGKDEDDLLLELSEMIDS

How the values were obtained:
Assay in all cases: log2 fold change, soluble protein after heating vs DMSO (PISA); higher = thermal stabilisation; K562 cells, 10 uM, 30 min; active = over 0.2 and 3.5 SD of the protein, either way, in both replicates (recomputed)
[1] = compound: C1=CC=C(C=C1)[C@H](COC2=CC3=C(C=C2)NC(=O)N3)NC(=O)C4=CC=CN(C4=O)CC5=CC(=C(C=C5)F)F
Summary of the method: (§1)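 Aliquots of K562 cells (2×10^6 cells/mL) treated with 10 μM compound for 30 min were heated for 3 min over 48°C-58°C. After pooling and extraction in PBS with 0.5% NP-40 at 4°C, soluble protein from a 21,000xg, 90 min spin was quantified by TMTpro 16plex LC-MS/MS with channel sums equalised. Thermal stability is expressed against control samples, from duplicates, as a log2 fold change.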

[2] = compound: CC1=C(SC2=C1C(=N[C@H](C3=NN=C(N32)C)CC(=O)N)C4=CC=C(C=C4)Cl)C
Summary of the method: as §1

[3] = compound: CC1=C2C(=CC=C1)N=C(N(C2=O)C3=CC=CC=C3C)CN4C=NC5=C(N=CN=C54)N
Summary of the method: as §1

[4] = compound: Cc1sc2c(c1C)C(c1ccc(Cl)cc1)=N[C@@H](CC(=O)OC(C)(C)C)c1nnc(C)n1-2
Summary of the method: as §1

[5] = compound: c1ccc([C@@H]2C[C@H]2NC2CCNCC2)cc1
Summary of the method: as §1

Target | log2 fold change [1] | log2 fold change [2] | log2 fold change [3] | log2 fold change [4] | log2 fold change [5]
ZCCHC9 (UniProt Q8N567) | inactive: 0.173 | inactive: -0.074 | inactive: -0.202 | inactive: 0.222 | inactive: 0.023
XRN1 (UniProt Q8IZH2) | inactive: -0.265 | inactive: -0.016 | inactive: 0.133 | inactive: 0.156 | inactive: 0.062
ZADH2 (UniProt Q8N4Q0) | inactive: 0.012 | inactive: -0.039 | inactive: -0.076 | inactive: -0.026 | inactive: 0.008
YBX3 isoform 2 (UniProt P16989) | inactive: 0.075 | inactive: -0.297 | inactive: -0.251 | inactive: 0.251 | inactive: 0.099
ZC3H14 (UniProt Q6PJT7) | inactive: 0.028 | inactive: -0.036 | inactive: -0.024 | inactive: 0.128 | inactive: 0.107
ZCCHC3 (UniProt Q9NUD5) | inactive: 0.075 | inactive: -0.205 | inactive: -0.145 | inactive: 0.244 | inactive: 0.04
ZEB1 isoform 2 (UniProt P37275) | inactive: -0.12 | inactive: 0.004 | inactive: -0.065 | inactive: -0.071 | inactive: 0
XPNPEP3 (UniProt Q9NQH7) | inactive: -0.004 | inactive: 0.018 | inactive: 0.07 | inactive: -0.009 | inactive: 0.006
ZMYM3 (UniProt Q14202) | inactive: -0.03 | inactive: 0.055 | inactive: -0.02 | inactive: 0.043 | inactive: 0.103
ZDHHC17 (UniProt Q8IUH5) | inactive: 0.014 | inactive: 0.062 | inactive: -0.082 | inactive: -0.039 | inactive: -0.011
ZC3H18 (UniProt Q86VM9) | inactive: 0.032 | inactive: -0.031 | inactive: 0.035 | inactive: 0.021 | inactive: 0.047
ZMIZ2 (UniProt Q8NF64) | inactive: -0.026 | inactive: 0.031 | inactive: 0.096 | inactive: -0.152 | inactive: 0.04
ZC3H15 (UniProt Q8WU90) | inactive: 0.041 | inactive: -0.041 | inactive: -0.041 | inactive: 0.043 | inactive: 0.032
YOD1 (UniProt Q5VVQ6) | inactive: -0.071 | inactive: 0.035 | inactive: 0.063 | inactive: -0.005 | inactive: 0.046
YDJC (UniProt A8MPS7) | inactive: 0.069 | inactive: 0.01 | inactive: 0.056 | inactive: -0.007 | inactive: -0.074
YAF2 isoform 5 (UniProt Q8IY57) | inactive: 0.034 | inactive: -0.04 | inactive: 0.072 | inactive: -0.029 | inactive: 0.024
YARS2 (UniProt Q9Y2Z4) | inactive: -0.107 | inactive: 0.025 | inactive: 0.234 | inactive: -0.073 | inactive: -0.04
XPO6 (UniProt Q96QU8) | inactive: 0.35 | inactive: 0.019 | inactive: 0.082 | inactive: 0.015 | inactive: -0.072
ZNF217 (UniProt O75362) | inactive: -0.017 | inactive: 0.048 | inactive: 0.163 | inactive: -0.003 | active: 0.306
XPO5 (UniProt Q9HAV4) | inactive: -0.037 | inactive: 0.042 | inactive: 0.02 | inactive: -0.024 | inactive: -0.01
ZC3HC1 (UniProt Q86WB0) | inactive: -0.091 | inactive: 0.07 | inactive: 0.1 | inactive: -0.032 | inactive: -0.018
ZFYVE19 (UniProt Q96K21) | inactive: 0.016 | inactive: 0.017 | inactive: 0.038 | inactive: -0.033 | inactive: 0.04
ZMYM4 (UniProt Q5VZL5) | inactive: -0.076 | inactive: 0.021 | inactive: 0.085 | inactive: -0.041 | inactive: 0.334
YIPF3 (UniProt Q9GZM5) | inactive: 0.01 | inactive: 0.021 | inactive: 0.016 | inactive: -0.033 | inactive: 0.02
ZFAND2B (UniProt Q8WV99) | inactive: -0.061 | inactive: 0.014 | inactive: -0.034 | inactive: 0.028 | inactive: 0.035
ZC3H8 (UniProt Q8N5P1) | inactive: 0.095 | inactive: -0.089 | inactive: -0.084 | inactive: 0.091 | inactive: 0
ZC2HC1A (UniProt Q96GY0) | inactive: 0.031 | inactive: 0.021 | inactive: -0.105 | inactive: 0.066 | inactive: 0.071

Target | log2 fold change [1] | log2 fold change [2] | log2 fold change [3] | log2 fold change [4] | log2 fold change [5]
ZFYVE27 isoform 2 (UniProt Q5T4F4) | inactive: -0.015 | inactive: 0.087 | inactive: 0.086 | inactive: -0.036 | inactive: 0.059
YIPF4 (UniProt Q9BSR8) | inactive: -0.027 | inactive: 0.001 | inactive: -0.019 | inactive: 0.027 | inactive: 0.046
YWHAE (UniProt P62258) | inactive: 0.02 | inactive: 0.002 | inactive: -0.002 | inactive: -0.016 | inactive: 0.021
ZNF207 isoform 4 (UniProt O43670) | inactive: 0.005 | inactive: 0 | inactive: -0.046 | inactive: -0.016 | inactive: -0.013
XRCC6 (UniProt P12956) | inactive: -0.04 | inactive: 0.044 | inactive: 0.114 | inactive: -0.022 | inactive: -0.003
YLPM1 (UniProt P49750) | inactive: -0.092 | inactive: 0.11 | inactive: 0.104 | inactive: 0.005 | inactive: -0.052
ZFAND3 (UniProt Q9H8U3) | inactive: 0.022 | inactive: -0.009 | inactive: -0.112 | inactive: -0.001 | inactive: 0.052
ZNF239 (UniProt Q16600) | inactive: -0.17 | inactive: -0.151 | inactive: -0.06 | inactive: -0.082 | inactive: 0.06
ZCCHC8 (UniProt Q6NZY4) | inactive: 0.017 | inactive: 0.009 | inactive: -0.045 | inactive: 0.026 | inactive: 0.025
YIPF6 (UniProt Q96EC8) | inactive: 0.062 | inactive: -0.04 | inactive: 0.114 | inactive: 0.103 | inactive: 0.015
YWHAQ (UniProt P27348) | inactive: -0.031 | inactive: 0.009 | inactive: -0.152 | inactive: -0.089 | inactive: -0.083
ZMPSTE24 (UniProt O75844) | inactive: -0.009 | inactive: 0.052 | inactive: -0.006 | inactive: -0.064 | inactive: 0.02
ZFYVE16 (UniProt Q7Z3T8) | inactive: 0.003 | inactive: 0.054 | inactive: 0.031 | inactive: -0.008 | inactive: -0.007
YBX1 (UniProt P67809) | inactive: 0.105 | inactive: -0.228 | inactive: -0.143 | inactive: 0.115 | inactive: 0.052
XPO7 (UniProt E7ESC6) | inactive: 0.003 | inactive: 0.047 | inactive: 0.005 | inactive: -0.009 | inactive: -0.014
YIF1A (UniProt O95070) | inactive: 0.024 | inactive: 0.122 | inactive: -0.012 | inactive: -0.043 | inactive: -0.109
ZC3H11A (UniProt O75152) | inactive: 0.142 | inactive: -0.129 | inactive: -0.056 |  | inactive: 0.167
XRCC3 (UniProt O43542) | inactive: -0.007 | inactive: 0.066 | inactive: -0.004 | inactive: -0.011 | inactive: -0.002
ZFP91 (UniProt Q96JP5) | inactive: -0.038 | inactive: -0.221 | inactive: -0.052 | inactive: 0.096 | inactive: 0.03
ZDHHC3 isoform 2 (UniProt Q9NYG2) | inactive: 0.037 | inactive: 0.142 | inactive: -0.026 | inactive: -0.017 | inactive: 0.034
YIF1B (UniProt Q5BJH7) | inactive: -0.054 | inactive: -0.294 | inactive: -0.009 | inactive: -0.061 | inactive: -0.153
ZFYVE9 (UniProt O95405) | inactive: 0.089 | inactive: 0.104 | inactive: 0.04 | inactive: -0.056 | inactive: -0.063
YARS (UniProt P54577) | inactive: -0.035 | inactive: 0.019 | inactive: 0.084 | inactive: -0.028 | inactive: -0.054
XPOT (UniProt O43592) | inactive: -0.028 | inactive: 0.06 | inactive: 0.083 | inactive: -0.002 | inactive: -0.001
ZBED1 (UniProt O96006) | inactive: 0.036 | inactive: 0.176 |  | inactive: 0.016 | inactive: -0.001
YIPF2 (UniProt Q9BWQ6) | inactive: 0.021 | inactive: -0.24 |  | inactive: -0.222 | inactive: -0.12

Already shown: an excerpt of the list.
Target | log2 fold change [1] | log2 fold change [2] | log2 fold change [3] | log2 fold change [4] | log2 fold change [5]
YIF1A (UniProt O95070) | inactive: 0.024 | inactive: 0.122 | inactive: -0.012 | inactive: -0.043 | inactive: -0.109
ZC3H11A (UniProt O75152) | inactive: 0.142 | inactive: -0.129 | inactive: -0.056 |  | inactive: 0.167
XRCC3 (UniProt O43542) | inactive: -0.007 | inactive: 0.066 | inactive: -0.004 | inactive: -0.011 | inactive: -0.002
ZFP91 (UniProt Q96JP5) | inactive: -0.038 | inactive: -0.221 | inactive: -0.052 | inactive: 0.096 | inactive: 0.03
ZDHHC3 isoform 2 (UniProt Q9NYG2) | inactive: 0.037 | inactive: 0.142 | inactive: -0.026 | inactive: -0.017 | inactive: 0.034
YIF1B (UniProt Q5BJH7) | inactive: -0.054 | inactive: -0.294 | inactive: -0.009 | inactive: -0.061 | inactive: -0.153
ZFYVE9 (UniProt O95405) | inactive: 0.089 | inactive: 0.104 | inactive: 0.04 | inactive: -0.056 | inactive: -0.063
YARS (UniProt P54577) | inactive: -0.035 | inactive: 0.019 | inactive: 0.084 | inactive: -0.028 | inactive: -0.054
XPOT (UniProt O43592) | inactive: -0.028 | inactive: 0.06 | inactive: 0.083 | inactive: -0.002 | inactive: -0.001
ZBED1 (UniProt O96006) | inactive: 0.036 | inactive: 0.176 |  | inactive: 0.016 | inactive: -0.001
